The supplement of paper PMC4604168 (melanoma cell lines)
The list shows a part of the results. Single values are uncertain, as repeats are few or missing.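 Cells were imaged in 1,536-well plates, and nuclei stained with an antibody against cleaved PARP were counted against all DNA-stained nuclei to give the apoptosis fraction. Screening doses were chosen to leave most cells alive, and resting and induced cleaved-PARP levels differ strongly between cell lines.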

How the values were obtained:
Experiment in all cases: cleaved PARP positive nuclei fraction relative to DMSO control; melanoma cells; higher = more apoptosis
Conditions in all cases: library dose: low library concentration; 72 h
COLO792 = system: COLO792
COLO800 = system: COLO800
COLO829 = system: COLO829
G361 = system: G361
IPC-298 = system: IPC-298
IST-MEL1 = system: IST-MEL1
LB2518-MEL = system: LB2518-MEL
LOXIMVI = system: LOXIMVI

Structure (SMILES) | cleaved PARP positive nuclei fraction (COLO792) [%] | cleaved PARP positive nuclei fraction (COLO800) [%] | cleaved PARP positive nuclei fraction (COLO829) [%] | cleaved PARP positive nuclei fraction (G361) [%] | cleaved PARP positive nuclei fraction (IPC-298) [%] | cleaved PARP positive nuclei fraction (IST-MEL1) [%] | cleaved PARP positive nuclei fraction (LB2518-MEL) [%] | cleaved PARP positive nuclei fraction (LOXIMVI) [%]
COc1ccc(C2=N[C@@H](c3ccc(Cl)cc3)[C@@H](c3ccc(Cl)cc3)N2C(=O)N2CCNC(=O)C2)c(OC(C)C)c1 [Nutlin-3] + C/C(O)=C(\C#N)C(=O)Nc1cc(Br)ccc1Br [LFM-A13] (first compound 0.1 µM, partner dose 2 µM) | 34.7 | 338 | 122 | 146 | 184 | 99.3 | 86.4 | 85.5
NC1(c2ccc(-c3nc4ccn5c(=O)[nH]nc5c4cc3-c3ccccc3)cc2)CCC1 + O=C(Oc1ccc([N+](=O)[O-])cc1)N1CCC(C(O)(c2ccc3c(c2)OCO3)c2ccc3c(c2)OCO3)CC1 [JZL184] (first compound 0.4 µM, partner dose 1 µM) | 121 | 75.4 | 237 | 67.1 | 92.7 | 58.2 | 141 | 67.3
Clc1ccc(Nc2nnc(Cc3ccncc3)c3ccccc23)cc1 [vatalanib] + C/C(O)=C(\C#N)C(=O)Nc1cc(Br)ccc1Br [LFM-A13] (first compound 2 µM, partner dose 2 µM) | 35.4 | 79.3 | 109 | 57.9 | 55 | 47.7 | 90.3 | 153
Cn1sc(=O)n(Cc2ccccc2)c1=O + C/C(O)=C(\C#N)C(=O)Nc1cc(Br)ccc1Br [LFM-A13] (first compound 0.4 µM, partner dose 2 µM) | 105 | 151 | 42.6 | 67.3 | 46.9 | 131 | 72.3 | 78.6
CC(=O)c1c(C)c2cnc(Nc3ccc(N4CCNCC4)cn3)nc2n(C2CCCC2)c1=O [palbociclib] + C/C(O)=C(\C#N)C(=O)Nc1cc(Br)ccc1Br [LFM-A13] (first compound 0.04 µM, partner dose 2 µM) | 186 | 71.2 | 77.6 | 76.6 | 171 | 105 | 77.5 | 45.7
CCCCCCCCCCCCCCCCCCOP(=O)([O-])OC1CC[N+](C)(C)CC1 [Perifosine] + C/C(O)=C(\C#N)C(=O)Nc1cc(Br)ccc1Br [LFM-A13] (first compound 0.4 µM, partner dose 2 µM) | 117 | 65.3 | 572 | 139 | 149 | 110 | 74.7 | 68.7
CCCS(=O)(=O)Nc1ccc(F)c(C(=O)c2c[nH]c3ncc(Cl)cc23)c1F + O=C(Oc1ccc([N+](=O)[O-])cc1)N1CCC(C(O)(c2ccc3c(c2)OCO3)c2ccc3c(c2)OCO3)CC1 [JZL184] (first compound 0.08 µM, partner dose 1 µM) | 105 | 88 | 79.1 | 124 | 82.4 | 120 | 67.9 | 137
CC(C)C[C@H](NC(=O)[C@H](Cc1ccccc1)NC(=O)c1cnccn1)B(O)O [Bortezomib] + C/C(O)=C(\C#N)C(=O)Nc1cc(Br)ccc1Br [LFM-A13] (first compound 0.001 µM, partner dose 2 µM) | 91.8 | 46 | 152 | 2160 | 60.1 | 153 | 390 | 56.1
CS(=O)(=O)CCNCc1ccc(-c2ccc3ncnc(Nc4ccc(OCc5cccc(F)c5)c(Cl)c4)c3c2)o1 [lapatinib] + Cc1cc(SCc2sc(-c3ccc(C(F)(F)F)c(F)c3)nc2C)ccc1OCC(=O)O [GW0742] (first compound 0.8 µM, partner dose 2 µM) | 108 | 61.4 | 86.6 | 68.9 | 89.7 | 56.2 | 54.5 | 97.9
CC[C@]1(O)C[C@H]2CN(CCc3c([nH]c4ccccc34)[C@@](C(=O)OC)(c3cc4c(cc3OC)N(C=O)[C@H]3[C@@](O)(C(=O)OC)[C@H](OC(C)=O)[C@]5(CC)C=CCN6CC[C@]43[C@@H]65)C2)C1 [vincristine] + C/C(O)=C(\C#N)C(=O)Nc1cc(Br)ccc1Br [LFM-A13] (first compound 0.0001 µM, partner dose 2 µM) | 116 | 71.6 | 83.4 | 131 | 96.8 | 65.8 | 89.3 | 132
Cn1cc(C2=C(c3cn(C4CCN(Cc5ccccn5)CC4)c4ccccc34)C(=O)NC2=O)c2ccccc21 [Enzastaurin] + O=S(=O)(c1ccccc1)N(CC(F)(F)F)c1ccc(C(O)(C(F)(F)F)C(F)(F)F)cc1 [T0901317] (first compound 0.8 µM, partner dose 1.4 µM) | 72.7 | 94.3 | 140 | 184 | 131 | 63.2 | 96.1 | 69.1
N.N.[Cl][Pt][Cl] [cisplatin] + COc1cc2ncnc(Nc3ccc(Oc4ccccc4)cc3)c2cc1OC [SrcI1] (first compound 1.6 µM, partner dose 2 µM) | 104 | 56.6 | 61.8 | 202 | 63.9 | 109 | 64.3 | 106
N.N.[Cl][Pt][Cl] [cisplatin] + O=C1NC(=O)/C(=C/c2ccc(-c3ccc(F)cc3O)o2)S1 [AS252424] (first compound 1.6 µM, partner dose 1 µM) | 66.8 | 183 | 157 | 80.2 | 150 | 190 | 102 | 162
CC[C@]1(O)C[C@H]2CN(CCc3c([nH]c4ccccc34)[C@@](C(=O)OC)(c3cc4c(cc3OC)N(C=O)[C@H]3[C@@](O)(C(=O)OC)[C@H](OC(C)=O)[C@]5(CC)C=CCN6CC[C@]43[C@@H]65)C2)C1 [vincristine] + Cc1cc(SCc2sc(-c3ccc(C(F)(F)F)c(F)c3)nc2C)ccc1OCC(=O)O [GW0742] (first compound 0.0001 µM, partner dose 2 µM) | 137 | 116 | 80.2 | 82 | 80 | 71.8 | 49.6 | 70.4
CC1(C)CCC(c2ccc(Cl)cc2)=C(CN2CCN(c3ccc(C(=O)NS(=O)(=O)c4ccc(N[C@H](CCN5CCOCC5)CSc5ccccc5)c(S(=O)(=O)C(F)(F)F)c4)cc3)CC2)C1 + O=C(Oc1ccc([N+](=O)[O-])cc1)N1CCC(C(O)(c2ccc3c(c2)OCO3)c2ccc3c(c2)OCO3)CC1 [JZL184] (first compound 0.4 µM, partner dose 1 µM) | 351 | 81.5 | 28.3 | 102 | 117 | 83.9 | 106 | 122
C[C@]12O[C@H](C[C@]1(O)CO)n1c3ccccc3c3c4c(c5c6ccccc6n2c5c31)CNC4=O [Lestaurtinib] + COc1ccc(-c2ccc3c(N4CCOCC4)nc(N4C[C@@H](C)O[C@@H](C)C4)nc3n2)cc1CO [KU0063794] (first compound 0.004 µM, partner dose 0.02 µM) | 79.3 | 79.9 | 156 | 79.1 | 103 | 99 | 105 | 97.6
C[C@]1(O)C[C@@H](c2nc(-c3ccc4ccc(-c5ccccc5)nc4c3)c3c(N)nccn32)C1 + Cc1cc(SCc2sc(-c3ccc(C(F)(F)F)c(F)c3)nc2C)ccc1OCC(=O)O [GW0742] (first compound 0.4 µM, partner dose 2 µM) | 129 | 97.8 | 172 | 102 | 105 | 37.6 | 36.7 | 163
C[C@]12O[C@H](C[C@]1(O)CO)n1c3ccccc3c3c4c(c5c6ccccc6n2c5c31)CNC4=O [Lestaurtinib] + O=C(Oc1ccc([N+](=O)[O-])cc1)N1CCC(C(O)(c2ccc3c(c2)OCO3)c2ccc3c(c2)OCO3)CC1 [JZL184] (first compound 0.004 µM, partner dose 1 µM) | 129 | 51.5 | 105 | 109 | 199 | 107 | 164 | 109
O=C(O)c1ccc2c(c1)nc(Nc1cccc(Cl)c1)c1ccncc12 + Cc1cc(SCc2sc(-c3ccc(C(F)(F)F)c(F)c3)nc2C)ccc1OCC(=O)O [GW0742] (first compound 0.4 µM, partner dose 2 µM) | 74.6 | 48.2 | 103 | 59.5 | 93.7 | 96.7 | 64.7 | 81.5
C[C@]1(O)C[C@@H](c2nc(-c3ccc4ccc(-c5ccccc5)nc4c3)c3c(N)nccn32)C1 + C/C(O)=C(\C#N)C(=O)Nc1cc(Br)ccc1Br [LFM-A13] (first compound 0.4 µM, partner dose 2 µM) | 71.5 | 322 | 161 | 194 | 168 | 105 | 81.3 | 173
N.N.[Cl][Pt][Cl] [cisplatin] + COc1ccc2c(c1)CCC1C2CCC2(C)C(NCCCCCCN3C(=O)C=CC3=O)CCC12 [U73122] (first compound 1.6 µM, partner dose 0.4 µM) | 83.6 | 41.6 | 134 | 71.9 | 72.4 | 110 | 34.4 | 210
C[C@@H](Oc1cc(-c2cnn(C3CCNCC3)c2)cnc1N)c1c(Cl)ccc(F)c1Cl [Crizotinib] + O=C(Oc1ccc([N+](=O)[O-])cc1)N1CCC(C(O)(c2ccc3c(c2)OCO3)c2ccc3c(c2)OCO3)CC1 [JZL184] (first compound 0.2 µM, partner dose 1 µM) | 61.6 | 39.3 | 135 | 107 | 37.6 | 91.3 | 132 | 42.6
CN(c1ncccc1CNc1nc(Nc2ccc3c(c2)CC(=O)N3)ncc1C(F)(F)F)S(C)(=O)=O + Cc1cc(SCc2sc(-c3ccc(C(F)(F)F)c(F)c3)nc2C)ccc1OCC(=O)O [GW0742] (first compound 0.08 µM, partner dose 2 µM) | 106 | 32.2 | 115 | 144 | 91.6 | 71.6 | 79.7 | 166

Given as a markdown table: entries from further up

| Structure (SMILES) | cleaved PARP positive nuclei fraction (COLO792) [%] | cleaved PARP positive nuclei fraction (COLO800) [%] | cleaved PARP positive nuclei fraction (COLO829) [%] | cleaved PARP positive nuclei fraction (G361) [%] | cleaved PARP positive nuclei fraction (IPC-298) [%] | cleaved PARP positive nuclei fraction (IST-MEL1) [%] | cleaved PARP positive nuclei fraction (LB2518-MEL) [%] | cleaved PARP positive nuclei fraction (LOXIMVI) [%] |
| --- | --- | --- | --- | --- | --- | --- | --- | --- |
| NC1(c2ccc(-c3nc4ccn5c(=O)[nH]nc5c4cc3-c3ccccc3)cc2)CCC1 + O=C(Oc1ccc([N+](=O)[O-])cc1)N1CCC(C(O)(c2ccc3c(c2)OCO3)c2ccc3c(c2)OCO3)CC1 [JZL184] (first compound 0.4 µM, partner dose 1 µM) | 121 | 75.4 | 237 | 67.1 | 92.7 | 58.2 | 141 | 67.3 |
| CC[C@]1(O)C[C@H]2CN(CCc3c([nH]c4ccccc34)[C@@](C(=O)OC)(c3cc4c(cc3OC)N(C=O)[C@H]3[C@@](O)(C(=O)OC)[C@H](OC(C)=O)[C@]5(CC)C=CCN6CC[C@]43[C@@H]65)C2)C1 [vincristine] + C/C(O)=C(\C#N)C(=O)Nc1cc(Br)ccc1Br [LFM-A13] (first compound 0.0001 µM, partner dose 2 µM) | 116 | 71.6 | 83.4 | 131 | 96.8 | 65.8 | 89.3 | 132 |
